Test results from the supplement of paper PMC12819154, “High-throughput peptide-centric local stability assay extends protein–ligand identification to membrane proteins, tissues and bacteria” (Nature Structural & Molecular Biology, 2025).
This is one part of the list. Small differences around the control level are noise.

The chains behind the UniProt entries cited, without tags or fusion partners. Where a name states a change or a piece, a line headed by the entry shows the natural chain unless it says otherwise.
UniProt Q05AH6: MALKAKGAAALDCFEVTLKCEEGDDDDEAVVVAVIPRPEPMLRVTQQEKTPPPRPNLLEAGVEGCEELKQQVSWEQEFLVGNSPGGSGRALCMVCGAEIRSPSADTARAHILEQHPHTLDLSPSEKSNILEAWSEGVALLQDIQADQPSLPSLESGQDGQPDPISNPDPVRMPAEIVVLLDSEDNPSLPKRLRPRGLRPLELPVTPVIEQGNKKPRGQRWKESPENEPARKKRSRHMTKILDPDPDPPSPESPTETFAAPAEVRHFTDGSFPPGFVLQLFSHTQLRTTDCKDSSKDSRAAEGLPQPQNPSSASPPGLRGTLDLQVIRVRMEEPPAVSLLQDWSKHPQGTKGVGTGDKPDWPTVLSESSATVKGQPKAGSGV
UniProt P97864: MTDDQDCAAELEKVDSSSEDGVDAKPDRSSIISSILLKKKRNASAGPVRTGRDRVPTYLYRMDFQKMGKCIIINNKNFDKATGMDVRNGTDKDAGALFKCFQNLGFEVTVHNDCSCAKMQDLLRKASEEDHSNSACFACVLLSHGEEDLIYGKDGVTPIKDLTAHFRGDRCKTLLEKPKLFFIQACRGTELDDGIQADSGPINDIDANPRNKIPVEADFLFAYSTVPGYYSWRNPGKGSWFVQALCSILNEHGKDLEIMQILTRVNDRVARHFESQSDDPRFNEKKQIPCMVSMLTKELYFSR
UniProt Q3UHX2: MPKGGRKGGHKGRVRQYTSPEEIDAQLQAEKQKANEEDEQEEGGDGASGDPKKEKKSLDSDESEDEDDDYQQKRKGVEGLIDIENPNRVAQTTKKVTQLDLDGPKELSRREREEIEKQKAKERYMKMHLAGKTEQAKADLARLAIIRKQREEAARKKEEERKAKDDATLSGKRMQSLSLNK
UniProt Q3UMW8: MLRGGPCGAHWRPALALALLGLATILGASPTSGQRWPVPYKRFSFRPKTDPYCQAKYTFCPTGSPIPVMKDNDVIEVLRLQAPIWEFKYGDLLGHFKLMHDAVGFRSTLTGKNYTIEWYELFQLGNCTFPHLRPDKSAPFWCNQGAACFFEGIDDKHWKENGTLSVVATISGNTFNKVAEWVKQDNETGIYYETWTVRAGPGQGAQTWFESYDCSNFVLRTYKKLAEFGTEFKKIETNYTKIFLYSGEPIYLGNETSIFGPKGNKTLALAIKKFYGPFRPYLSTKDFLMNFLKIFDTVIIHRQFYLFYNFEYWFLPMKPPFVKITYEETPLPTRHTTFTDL
UniProt Q05816: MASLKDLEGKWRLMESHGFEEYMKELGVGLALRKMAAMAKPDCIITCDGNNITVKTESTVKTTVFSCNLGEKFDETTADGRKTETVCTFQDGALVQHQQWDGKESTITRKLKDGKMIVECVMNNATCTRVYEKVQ
UniProt Q3UPH1: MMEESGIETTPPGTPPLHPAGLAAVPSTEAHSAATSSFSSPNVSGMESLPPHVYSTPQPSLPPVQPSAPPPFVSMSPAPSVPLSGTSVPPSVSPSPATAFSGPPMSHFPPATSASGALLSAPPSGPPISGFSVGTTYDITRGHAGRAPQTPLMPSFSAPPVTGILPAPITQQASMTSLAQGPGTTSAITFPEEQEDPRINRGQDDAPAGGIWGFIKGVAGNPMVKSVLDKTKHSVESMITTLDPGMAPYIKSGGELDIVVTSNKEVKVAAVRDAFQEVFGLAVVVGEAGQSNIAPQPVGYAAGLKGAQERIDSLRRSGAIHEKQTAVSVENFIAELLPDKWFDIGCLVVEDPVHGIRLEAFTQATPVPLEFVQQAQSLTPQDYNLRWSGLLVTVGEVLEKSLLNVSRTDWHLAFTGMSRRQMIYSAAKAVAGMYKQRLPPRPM
UniProt Q3V3R4, whole entry: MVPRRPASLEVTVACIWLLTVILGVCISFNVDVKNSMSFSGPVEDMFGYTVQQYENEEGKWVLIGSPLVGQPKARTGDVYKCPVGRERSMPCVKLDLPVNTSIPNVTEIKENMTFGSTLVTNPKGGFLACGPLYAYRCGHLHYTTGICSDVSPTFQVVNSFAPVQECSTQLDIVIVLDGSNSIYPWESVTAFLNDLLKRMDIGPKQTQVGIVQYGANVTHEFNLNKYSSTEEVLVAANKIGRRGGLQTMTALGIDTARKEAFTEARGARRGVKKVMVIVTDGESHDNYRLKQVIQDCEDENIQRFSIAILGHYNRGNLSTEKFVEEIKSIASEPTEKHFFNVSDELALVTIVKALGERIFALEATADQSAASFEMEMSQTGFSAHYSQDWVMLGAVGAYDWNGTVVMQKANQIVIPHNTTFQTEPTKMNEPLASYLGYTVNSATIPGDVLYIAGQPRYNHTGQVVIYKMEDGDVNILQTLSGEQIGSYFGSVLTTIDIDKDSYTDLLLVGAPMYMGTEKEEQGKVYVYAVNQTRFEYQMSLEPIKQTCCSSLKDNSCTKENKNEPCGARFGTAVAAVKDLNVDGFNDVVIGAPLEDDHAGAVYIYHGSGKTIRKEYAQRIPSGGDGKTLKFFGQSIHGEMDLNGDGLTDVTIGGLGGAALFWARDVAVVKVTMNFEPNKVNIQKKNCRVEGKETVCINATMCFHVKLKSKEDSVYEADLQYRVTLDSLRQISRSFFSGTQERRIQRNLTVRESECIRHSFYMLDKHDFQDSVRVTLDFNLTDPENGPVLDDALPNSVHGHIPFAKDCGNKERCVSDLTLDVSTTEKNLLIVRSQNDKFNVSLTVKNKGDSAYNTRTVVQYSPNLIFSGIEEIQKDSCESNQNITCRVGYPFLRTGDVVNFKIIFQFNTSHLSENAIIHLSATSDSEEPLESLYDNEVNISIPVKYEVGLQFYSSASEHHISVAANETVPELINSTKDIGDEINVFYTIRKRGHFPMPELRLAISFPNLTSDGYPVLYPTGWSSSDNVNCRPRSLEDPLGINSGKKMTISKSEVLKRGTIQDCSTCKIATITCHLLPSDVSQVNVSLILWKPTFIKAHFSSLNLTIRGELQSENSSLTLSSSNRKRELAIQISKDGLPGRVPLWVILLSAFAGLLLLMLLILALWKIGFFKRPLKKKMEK
UniProt Q3UFS4: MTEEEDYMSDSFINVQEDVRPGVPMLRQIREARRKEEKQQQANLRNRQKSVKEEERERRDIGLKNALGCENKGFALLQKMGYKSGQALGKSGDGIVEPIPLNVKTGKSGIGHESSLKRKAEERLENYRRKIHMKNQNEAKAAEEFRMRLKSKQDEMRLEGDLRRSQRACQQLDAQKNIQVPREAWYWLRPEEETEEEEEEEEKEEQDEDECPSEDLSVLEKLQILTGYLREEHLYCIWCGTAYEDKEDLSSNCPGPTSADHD
UniProt Q3UHH2: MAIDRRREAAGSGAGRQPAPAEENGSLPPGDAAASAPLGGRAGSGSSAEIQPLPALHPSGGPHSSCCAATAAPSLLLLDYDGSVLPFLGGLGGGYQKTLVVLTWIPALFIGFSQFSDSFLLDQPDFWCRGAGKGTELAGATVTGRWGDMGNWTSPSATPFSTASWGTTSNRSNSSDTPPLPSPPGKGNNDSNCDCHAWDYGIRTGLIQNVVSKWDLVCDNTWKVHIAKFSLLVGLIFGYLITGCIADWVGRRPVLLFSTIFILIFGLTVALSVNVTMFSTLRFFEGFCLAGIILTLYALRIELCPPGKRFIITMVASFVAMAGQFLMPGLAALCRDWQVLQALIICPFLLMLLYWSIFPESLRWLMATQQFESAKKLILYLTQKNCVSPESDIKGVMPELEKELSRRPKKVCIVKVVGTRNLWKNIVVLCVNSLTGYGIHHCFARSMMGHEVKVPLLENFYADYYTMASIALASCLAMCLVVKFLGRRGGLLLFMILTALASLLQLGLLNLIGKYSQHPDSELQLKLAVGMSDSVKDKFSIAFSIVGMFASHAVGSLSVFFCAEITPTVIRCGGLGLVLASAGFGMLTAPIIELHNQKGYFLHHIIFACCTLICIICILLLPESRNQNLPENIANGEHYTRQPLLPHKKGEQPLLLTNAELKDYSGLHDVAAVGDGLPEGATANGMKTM
UniProt Q2VLH6: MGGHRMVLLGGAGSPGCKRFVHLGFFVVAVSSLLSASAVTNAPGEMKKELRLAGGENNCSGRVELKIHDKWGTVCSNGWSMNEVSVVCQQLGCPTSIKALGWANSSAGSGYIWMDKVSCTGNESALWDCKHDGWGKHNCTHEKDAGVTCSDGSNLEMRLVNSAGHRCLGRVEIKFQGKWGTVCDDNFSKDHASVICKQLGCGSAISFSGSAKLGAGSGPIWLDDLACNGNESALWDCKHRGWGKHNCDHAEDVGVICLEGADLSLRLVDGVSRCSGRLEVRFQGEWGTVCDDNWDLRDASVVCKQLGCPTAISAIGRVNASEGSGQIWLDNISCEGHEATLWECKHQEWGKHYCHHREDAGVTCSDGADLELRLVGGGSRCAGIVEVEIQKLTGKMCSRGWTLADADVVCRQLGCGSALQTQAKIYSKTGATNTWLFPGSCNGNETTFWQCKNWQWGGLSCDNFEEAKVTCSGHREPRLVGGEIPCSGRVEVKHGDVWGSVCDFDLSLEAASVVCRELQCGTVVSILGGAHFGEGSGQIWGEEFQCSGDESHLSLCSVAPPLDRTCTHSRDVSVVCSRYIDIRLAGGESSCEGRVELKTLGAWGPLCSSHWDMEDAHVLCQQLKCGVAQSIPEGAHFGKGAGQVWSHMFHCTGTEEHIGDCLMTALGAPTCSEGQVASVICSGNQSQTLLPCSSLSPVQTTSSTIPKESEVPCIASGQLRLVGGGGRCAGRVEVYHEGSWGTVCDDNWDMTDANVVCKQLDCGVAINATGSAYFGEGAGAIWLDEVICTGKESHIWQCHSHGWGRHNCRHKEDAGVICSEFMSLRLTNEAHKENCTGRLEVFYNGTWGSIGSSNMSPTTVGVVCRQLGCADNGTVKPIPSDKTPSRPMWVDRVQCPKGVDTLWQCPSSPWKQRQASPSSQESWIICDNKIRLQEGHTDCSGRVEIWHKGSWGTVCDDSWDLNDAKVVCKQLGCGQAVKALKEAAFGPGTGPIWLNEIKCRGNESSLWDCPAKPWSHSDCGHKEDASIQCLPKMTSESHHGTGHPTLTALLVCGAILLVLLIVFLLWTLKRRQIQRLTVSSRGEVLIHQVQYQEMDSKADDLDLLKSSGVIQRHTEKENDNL
UniProt P97930: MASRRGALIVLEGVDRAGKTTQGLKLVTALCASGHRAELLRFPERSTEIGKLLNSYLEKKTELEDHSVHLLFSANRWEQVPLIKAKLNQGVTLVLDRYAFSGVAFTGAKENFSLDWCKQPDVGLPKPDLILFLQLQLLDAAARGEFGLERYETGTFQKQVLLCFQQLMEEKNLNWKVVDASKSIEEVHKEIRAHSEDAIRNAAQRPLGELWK
UniProt Q00915: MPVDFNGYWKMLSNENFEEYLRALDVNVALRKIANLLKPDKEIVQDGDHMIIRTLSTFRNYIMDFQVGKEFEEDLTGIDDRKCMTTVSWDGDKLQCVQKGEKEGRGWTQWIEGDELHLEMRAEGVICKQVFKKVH
UniProt Q3UHC7: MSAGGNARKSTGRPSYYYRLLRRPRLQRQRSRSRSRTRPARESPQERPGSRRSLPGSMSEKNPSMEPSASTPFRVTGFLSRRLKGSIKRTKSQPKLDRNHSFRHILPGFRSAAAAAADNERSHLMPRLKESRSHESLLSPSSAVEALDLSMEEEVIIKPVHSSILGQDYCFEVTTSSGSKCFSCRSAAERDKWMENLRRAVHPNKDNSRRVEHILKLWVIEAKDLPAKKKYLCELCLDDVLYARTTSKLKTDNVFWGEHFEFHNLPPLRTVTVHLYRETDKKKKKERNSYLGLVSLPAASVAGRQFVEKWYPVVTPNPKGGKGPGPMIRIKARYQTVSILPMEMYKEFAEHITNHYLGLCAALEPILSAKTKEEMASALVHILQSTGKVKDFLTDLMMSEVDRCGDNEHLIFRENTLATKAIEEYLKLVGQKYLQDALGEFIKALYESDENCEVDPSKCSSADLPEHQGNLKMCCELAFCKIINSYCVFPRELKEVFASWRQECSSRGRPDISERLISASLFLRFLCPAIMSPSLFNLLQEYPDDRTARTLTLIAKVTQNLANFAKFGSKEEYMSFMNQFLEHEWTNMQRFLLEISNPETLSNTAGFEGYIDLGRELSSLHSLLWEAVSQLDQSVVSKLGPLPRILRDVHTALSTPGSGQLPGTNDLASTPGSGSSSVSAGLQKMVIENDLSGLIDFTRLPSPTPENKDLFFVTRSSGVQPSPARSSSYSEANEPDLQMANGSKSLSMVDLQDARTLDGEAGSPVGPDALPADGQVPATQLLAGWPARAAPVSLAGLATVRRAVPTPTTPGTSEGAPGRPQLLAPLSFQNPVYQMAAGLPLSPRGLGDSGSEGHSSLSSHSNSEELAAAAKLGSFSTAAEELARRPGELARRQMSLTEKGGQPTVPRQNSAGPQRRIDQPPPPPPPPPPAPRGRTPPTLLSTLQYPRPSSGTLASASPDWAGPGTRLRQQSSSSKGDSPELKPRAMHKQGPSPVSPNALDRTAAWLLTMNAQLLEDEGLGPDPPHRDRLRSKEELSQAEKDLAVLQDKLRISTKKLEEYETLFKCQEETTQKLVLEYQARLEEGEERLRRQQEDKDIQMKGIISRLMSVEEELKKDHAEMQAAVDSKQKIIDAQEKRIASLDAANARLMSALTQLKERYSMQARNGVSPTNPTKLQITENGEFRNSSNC

Compound: CN[C@@H]1C[C@H]2O[C@@](C)([C@@H]1OC)n1c3ccccc3c3c4c(c5c6ccccc6n2c5c31)C(=O)NC4 [staurosporine]
Experiment: log2 fold change of pooled soluble protein (PISA), ligand vs vehicle (log2 ratio); higher = more thermally stabilized
Conditions: ligand concentration: 20 uM; assay format: PISA pool 52.9/55.5/58.6 C

Target | log2 fold change of pooled soluble protein
UniProt Q05AH6 | 0.136
UniProt Q14DH7 | -0.0169
UniProt Q3UMT1 | -0.0576
UniProt P97864 | 0.148
UniProt Q3UHX2 | -0.0763
UniProt Q3URD3 | -0.075
UniProt Q3THK7 | -0.153
UniProt Q3U9N9 | 0.0559
UniProt Q3UMW8 | 0.0804
UniProt Q05816 | -0.0433
UniProt Q3UPH1 | -0.0864
UniProt Q3V3R4 | -0.0202
UniProt Q05915 | -0.0753
UniProt P98078 | -0.02
UniProt Q04207 | -0.103
UniProt Q3UDK1 | -0.0495
UniProt Q3V3Q7 | 0.195
UniProt Q4LDG0 | -0.0211
UniProt Q3UFS4 | -0.176

Given in markdown: entries from further up

| Target | log2 fold change of pooled soluble protein |
| --- | --- |
| UniProt Q3U9N9 | 0.0559 |
| UniProt Q3UPH1 | -0.0864 |
| UniProt Q3V3R4 | -0.0202 |

(next part)

Target | log2 fold change of pooled soluble protein
UniProt Q08091 | 0.334
UniProt Q3UHH2 | -0.0342
UniProt Q2VLH6 | 0.00477
UniProt Q3UZP4 | 0.275
UniProt Q5RJG7 | -0.0162
UniProt Q3U0S6 | -0.285
UniProt Q4PZA2 | -0.0498
UniProt Q00519 | -0.0669
UniProt Q5QR91 | 0.49
UniProt P97823 | 0.025
UniProt P97872 | -0.0766
UniProt Q06138 | 0.0409
UniProt Q3TMH2 | -0.109
UniProt Q3TIR1 | -0.085
UniProt P97930 | 0.124
UniProt Q00915 | -0.0359
UniProt Q02013 | 0.0105
UniProt Q3UHC7 | -0.00031
